From ChEMBL document CHEMBL3988442, “University of Dundee, Small-Polar-MMV Screening Library” (2021).

The chains behind the UniProt entries cited, without tags or fusion partners.
UniProt P9WPC5, whole entry: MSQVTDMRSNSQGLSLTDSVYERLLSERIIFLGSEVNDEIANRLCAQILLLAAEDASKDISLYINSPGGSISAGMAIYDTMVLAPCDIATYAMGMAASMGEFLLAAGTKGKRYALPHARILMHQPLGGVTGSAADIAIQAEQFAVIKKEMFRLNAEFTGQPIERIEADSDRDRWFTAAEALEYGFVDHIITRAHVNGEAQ
UniProt P9WPC3, whole entry partner: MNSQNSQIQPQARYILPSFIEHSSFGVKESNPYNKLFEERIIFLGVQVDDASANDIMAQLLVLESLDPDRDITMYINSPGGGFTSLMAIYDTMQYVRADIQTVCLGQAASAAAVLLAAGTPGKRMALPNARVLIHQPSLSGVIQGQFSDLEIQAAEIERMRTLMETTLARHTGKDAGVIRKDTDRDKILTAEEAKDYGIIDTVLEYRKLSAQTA
UniProt P9WFT3, whole entry: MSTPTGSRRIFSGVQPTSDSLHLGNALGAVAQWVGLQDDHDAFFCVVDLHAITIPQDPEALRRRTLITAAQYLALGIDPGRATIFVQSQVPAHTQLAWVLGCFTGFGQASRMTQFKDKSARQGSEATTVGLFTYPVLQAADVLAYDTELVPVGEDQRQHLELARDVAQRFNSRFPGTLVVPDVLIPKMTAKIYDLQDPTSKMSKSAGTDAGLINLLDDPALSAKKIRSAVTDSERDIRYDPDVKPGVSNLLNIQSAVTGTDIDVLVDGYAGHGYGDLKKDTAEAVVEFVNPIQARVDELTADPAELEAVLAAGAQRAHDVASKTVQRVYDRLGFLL

ClpP1P2: 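ClpP1P2, Mycobacterium tuberculosis (UniProt P9WPC5 and UniProt P9WPC3). Protease assay of ClpP1P2, read by the AMC dye that it sets free. Concentration: 50 µM. Direction is inferred from only a few compounds that gave an IC50; most scored high, so higher reads as stronger inhibition. Most other retested compounds had strongly negative values. Size under these conditions: about 69,000 compounds, about 10 of them at 50% or above in at least one test.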
MtTrpRS: 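Tryptophan-tRNA ligase, Mycobacterium tuberculosis (UniProt P9WFT3). Enzyme assay of tryptophanyl-tRNA synthetase; the read-out is not stated. Concentration: 10 µM. Higher most likely means stronger inhibition; the record gives no direction and few retests gave an IC50. About 65,000 compounds were tested under these conditions; 0.098% (about 64) showed 50% or more at least once.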

The filed quantity is “Percent Effect” (%).
The controls that fix the scale are not given in the record; negative values are as filed.
Compounds were drawn at random from those tested, without regard to their results.

With O=C(NC1CC1)C1CCN(Cn2nc(-c3ccccc3)oc2=O)CC1 the screen gave ClpP1P2: 3.994%; MtTrpRS: 3.293%.
With CC(CN1CCC(CCO)CC1)n1cnc2ccccc21 (stereo unspecified) the screen gave ClpP1P2: -10.24%; MtTrpRS: 0.154%.
With Cc1ccc2c(n1)N(Cc1cccnc1)CCN(Cc1cnn(C)c1)C2 the screen gave ClpP1P2: -10.16%.
With N#Cc1cccc(N2CCCC3(C2)CN(c2ncccn2)CCO3)n1 (stereo unspecified) the screen gave ClpP1P2: -9.253%; MtTrpRS: -0.9709%.
With CC(CNC(=O)Nc1ccc(F)cc1Br)N1CCOCC1 (stereo unspecified) the screen gave ClpP1P2: -1.645%; MtTrpRS: -1.872%.
With O=C1CCCN1c1cccc(N2CCC(NCCc3cscn3)CC2)c1 the screen gave ClpP1P2: -14.27%; MtTrpRS: 2.449%.
With Cc1csc(NC(=O)C2(C)CCCO2)n1 (stereo unspecified) the screen gave ClpP1P2: -2.546%; MtTrpRS: 2.624%.
With CCN(Cc1ccncc1)CC1(O)CCN(C(=O)c2cccc(C)n2)C1 (stereo unspecified) the screen gave ClpP1P2: -5.475%; MtTrpRS: 11.19%.
With CCC(=O)NCC(=O)NCC1(O)CCC(C(C)(C)C)CC1 (stereo unspecified) the screen gave ClpP1P2: -0.5573%; MtTrpRS: -6.708%.
With O=C1NCCN1C1CCCN(Cc2nnc(-c3ccc(F)cc3)o2)C1 (stereo unspecified) the screen gave ClpP1P2: 1.555%; MtTrpRS: -1.263%.
With Cc1nn(-c2ccccc2Cl)c(C)c1CCC(=O)NCCS(C)(=O)=O the screen gave ClpP1P2: -9.487%.
With CNC(=O)CNCc1c[nH]nc1-c1cc2ccccc2o1 the screen gave ClpP1P2: -0.7227%; MtTrpRS: -0.0657%.
With CC(C)CN(C)Cc1c[nH]nc1-c1ccc(F)cc1F the screen gave ClpP1P2: 4.257%; MtTrpRS: 0.5711%.
With Cn1cc(NC(=O)N2CCC2c2ccccc2)ccc1=O (stereo unspecified) the screen gave ClpP1P2: -21.55%; MtTrpRS: 4.011%.
With c1ccc(-c2nc(CNCC3CCCN3c3cccnn3)co2)cc1 (stereo unspecified) the screen gave ClpP1P2: -13.65%; MtTrpRS: 10.48%.
With CCc1nccn1-c1nccnc1C1CCN(C(=O)COC)CC1 the screen gave ClpP1P2: -2.848%; MtTrpRS: 20.08%.
With COc1cc(N(C)CCCn2nc(C)cc2C)ncn1 the screen gave ClpP1P2: 15.96%; MtTrpRS: 0.07128%.
With CCOCC(O)CN1CCN(C(=O)C2CCC2)CC1 (stereo unspecified) the screen gave ClpP1P2: -9.671%; MtTrpRS: -10.31%.
With NC(=O)CCn1cc(CNCCCc2csc(N)n2)c2ccccc21 the screen gave ClpP1P2: -1.519%; MtTrpRS: 1.312%.
With Cc1cccc(N2CCN(C(=O)CNCCn3cc(C)cn3)CC2)c1 the screen gave ClpP1P2: -3.326%; MtTrpRS: 7.596%.
With CC(=O)Nn1ccc2c(nnc3c(-c4ccc(F)cc4)cnn32)c1=O the screen gave ClpP1P2: -7.41%; MtTrpRS: -0.7651%.
With COCc1cccc(CNC(=O)CN2CCCC2c2noc(C)n2)c1 (stereo unspecified) the screen gave ClpP1P2: 4.19%; MtTrpRS: 0.3145%.
With Cc1ccc(CN2CCc3[nH]nc(C(=O)N(C)C)c3C2)s1 the screen gave ClpP1P2: -10.47%; MtTrpRS: 2.829%.
With CCc1nc(C)c(C(=O)N2CCNCC2C(=O)Nc2ccc(C)nc2)o1 (stereo unspecified) the screen gave ClpP1P2: -22.27%; MtTrpRS: -10.92%.
With O=C(c1ccccn1)N1Cc2nccn2CC(COc2cccnc2)C1 (stereo unspecified) the screen gave ClpP1P2: 13.79%; MtTrpRS: 4.932%.
With O=C(O)c1ccccc1-c1ccc(CN2CCC(CO)C2)cn1 (stereo unspecified) the screen gave ClpP1P2: -10.82%; MtTrpRS: 15.86%.
With CCn1ccnc1CN1CCCC(CO)(CCCc2ccccc2)C1 (stereo unspecified) the screen gave ClpP1P2: -5.935%; MtTrpRS: 0.08794%.
With Cc1cn2c(n1)C(CNCc1ccc(C)s1)CCC2 (stereo unspecified) the screen gave ClpP1P2: 11.58%; MtTrpRS: -4.47%.
With Cc1cnc(CN2CCCC(c3cc(C(F)(F)F)[nH]n3)C2)cn1 (stereo unspecified) the screen gave ClpP1P2: 5.716%; MtTrpRS: -1.774%.
With COc1ccc(F)c(-c2cc(C(=O)NC3CC3)ccn2)c1 the screen gave ClpP1P2: 2.451%; MtTrpRS: 1.234%.
With COC(=O)c1ccc(NC(=O)CCc2ccncc2)c(C)c1 the screen gave ClpP1P2: -7.269%; MtTrpRS: -3.846%.
With COCC(=O)N1CC[C@]2(O)CCN(C(=O)CCc3ccsc3)C[C@@H]2C1 the screen gave ClpP1P2: 20.25%; MtTrpRS: -2.524%.
With CCC(C)N(C)CCNC(=O)NCc1cccc(-n2cncn2)c1 (stereo unspecified) the screen gave ClpP1P2: -0.005729%; MtTrpRS: -2.012%.
With CNC(=O)c1cccnc1NCCOc1ccccc1 the screen gave ClpP1P2: -0.2579%; MtTrpRS: -3.229%.
With Cc1ccc2oc(C(=O)N3CCc4nnc(N(C)C)cc4C3)cc2n1 the screen gave ClpP1P2: -6.189%; MtTrpRS: -1.943%.
With CC(C)OCCOCc1cccc(NC(=O)NCC(=O)N(C)C)c1 the screen gave ClpP1P2: -2.349%; MtTrpRS: 6.299%.
With Cc1nn(C(C)C)c2cnn(CC(=O)N3CCN(C)CC3)c12 the screen gave ClpP1P2: -2.351%; MtTrpRS: -4.008%.
With Cn1ncc(C2CC(=O)NCc3nc4sccn4c32)c1C1CC1 (stereo unspecified) the screen gave ClpP1P2: -17.78%; MtTrpRS: -1.592%.
With CC(C)c1cc(NC(=O)CN2CCc3c(nc(C(C)C)n3C)C2)on1 the screen gave ClpP1P2: -8.425%; MtTrpRS: -3.277%.
With CN(C)C(=O)c1cc(-c2cnc(N)nc2)nc2cc(F)ccc12 the screen gave ClpP1P2: -2.928%; MtTrpRS: 2.916%.
With Cc1cc(C)nc(N2CCOC(c3cc(CCO)[nH]n3)C2)n1 (stereo unspecified) the screen gave ClpP1P2: 9.512%; MtTrpRS: -7.187%.
With Cn1ncc2c(=O)[nH]c(CN(Cc3ccco3)C3CCCC3)nc21 the screen gave ClpP1P2: 13.03%; MtTrpRS: -0.07993%.
With Cc1c2ncn(CC(=O)c3ccccc3)c(=O)c2nn1C the screen gave ClpP1P2: 5.958%; MtTrpRS: -0.4955%.
With O=C1OCCN1CCNCC1(O)CCCN(CCC2CCCCC2)C1=O (stereo unspecified) the screen gave ClpP1P2: -13.25%; MtTrpRS: -4.71%.
With COc1ccc(OC)c(CCC(=O)Nc2cc(C)n[nH]2)c1 the screen gave ClpP1P2: -0.04926%; MtTrpRS: -3.211%.